# At least one peptide structure holds a part that was inferred or is arguable (an end, a ring closure or a residue). Non-standard residues stand in square brackets, D forms with d. Residues, ends and D or L forms follow the SMILES beside them.
# Test system: male ICR-CD1 mice
# Experiment: Transient ischemia in adult mice (middle cerebral artery occlusion)
# Type: in vivo
# [1] = icv 15.7 ng, 3 hours post-occlusion
# [2] = icv 15.7 ng, 6 hours post-occlusion
smiles,measurement,setting,value
"CC(C)C[C@@H](NC(=O)[C@@H](Cc1ccccc1)NC(=O)[C@H]1CCCN1C(=O)[C@@H](CCC(N)=O)NC(=O)[C@H](NC(=O)[C@H]1CCCN1C(=O)[C@@H](CCCNC(=N)N)NC(=O)[C@@H](CO)NC(=O)[C@@H](CCC(N)=O)NC(=O)[C@@H](CC(=O)O)NC(=O)[C@H](N)[C@H](C)O)C(C)C)C(=O)N[C@H](CC(N)=O)C(=O)N[C@H](CC(C)C)C(=O)N[C@@H](C(=O)N[C@@H](C(=O)N1CCC[C@@H]1C(=O)N[C@H](CCCNC(=N)N)C(=O)N[C@H](CCCCN)C(=O)N1CCC[C@@H]1C(=O)N[C@H](CCCNC(=N)N)C(=O)N1CCC[C@@H]1C(=O)N1CCC[C@@H]1C(=O)N[C@H](CCCNC(=N)N)C(=O)N[C@H](CCCNC(=N)N)C(=O)N[C@H](CCCNC(=N)N)C(=O)N[C@H](CCC(N)=O)C(=O)N[C@H](CCCNC(=N)N)C(=O)N[C@H](CCCNC(=N)N)C(=O)N[C@H](CCCCN)C(=O)N[C@H](CCCCN)C(=O)N[C@H](CCCNC(=N)N)C(=O)NCC(=O)O)[C@H](C)O)[C@H](C)O [D-JNKI, TDQSRPVQPF LNLTTPRKPR PPRRRQR RKKRG] (H-[dT][dD][dQ][dS][dR][dP][dV][dQ][dP][dF][dL][dN][dL][dT][dT][dP][dR][dK][dP][dR][dP][dP][dR][dR][dR][dQ][dR][dR][dK][dK][dR]G-OH)",neuroprotection conferred,dose 2.8 μl/Kg,90%
same,decrease of infarct volume,"icv 15.7 ng, 1 hour before occlusion",88%
same,infarct volume,"icv 15.7 ng, 1 hour before occlusion, 48 hours after reperfusion",7.8 mm^3
same,mean infarct volume,[1],5.8 mm^3
same,reduction of infarct volume compared to untreated animals,[1],91%
same,mean infarct volume,[2],4.8 mm^3
same,reduction of infarct volume compared to untreated animals,[2],93%
same,protection (infarct volume),"icv, 12 hours after occlusion",not significantly protective

# Source: US8569447B2, “Cell-permeable peptide inhibitors of the JNK signal transduction pathway” (Xigen SA, priority 2003, dated 2013)
